# Reference: PubChem BioAssay AID540303 (National Center for Advancing Translational Sciences (NCATS), 2011)
# In all, about 330,000 compounds went through this assay and about 1,000 (0.3%) were called active. This list was built around the results that the source calls inconclusive (neither active nor inactive); the mix of calls is not that of the screen. The call rests on the fitted dose curve; in most records, active means well fitted inhibition curve with a large enough effect; inconclusive means small, poorly fitted or top-dose-only effect; inactive means no such curve, though single readings can be large or run the other way; tested in mouse RAW 264.7 cells. Potencies of inconclusive entries are doubtful fits and often do not repeat.
# Assay: qHTS for Inhibitors of Cell Surface uPA Generation; further: nearly all actives have a fitted effect of over 55% in size
# Conditions: cell surface uPA generation assay; series mostly up to 38.3 µM; activity change, negative = inhibition: at the top concentration
# How it was run: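 ATP-Lite luminescence in RAW 264.7 cells after 24 h of exposure to compound, tested up to 38.3 uM final in 1:5 steps. Raised ATP reflects inhibition of uPA-dependent LF delivery to the cytoplasm.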
# On the % scale 0 is the no-effect control and ±100 the full control effect; potency means the concentration at half of the fitted maximal effect.
SMILES,"activity change, negative = inhibition",Potency
CC(=O)N1N=C(c2cccc([N+](=O)[O-])c2)OC1c1cccc(Br)c1 (stereo unspecified),inactive: -3.39%,
CCCc1nc(SCC(=O)N2CCc3ccccc3C2)c2ccccc2n1,,"inconclusive: 12.6 µM [inhibitor, single point]"
COc1ccc(Cl)cc1NC(=O)CN(C)C(=O)c1cc2c(F)cccc2s1,,active: 6.31 µM
C/C(=N\NC(=S)Nc1ccc(F)cc1)c1ccc2c(c1)OCCO2,,"inconclusive: 11.2 µM [inhibitor, single point]"
N/C(=N\OC(=O)COc1ccc(Br)cc1Cl)c1ccncc1,inactive: 0.0452%,
C#CC1(O)CCC2C3CCC4=C(CCC(=O)C4)C3CCC21C (stereo unspecified),inactive: -1.88%,
Cc1ccc(N2C(=O)c3ccccc3NC2c2ccccc2O)cc1 (stereo unspecified),,"inconclusive: 2.82 µM [inhibitor, partial curve, poor fit]"
Cc1cc(NC(=O)CSc2cn(C)c3ccccc23)no1,inactive: -0.0093%,
Cc1cccc(-n2c(C)cc(/C=N\NC(=O)c3cccs3)c2C)c1,,"inconclusive: 28.2 µM [inhibitor, single point]"
Cc1cc(C)cc(N2C(=O)CC(Sc3ccccc3C(=O)O)C2=O)c1 (stereo unspecified),inactive: -2.07%,
Nc1c(Cl)ncnc1N/N=C/c1cccc(O)c1,,"inconclusive: 12.6 µM [inhibitor, partial curve, poor fit]"
O=C(c1cnccn1)N1CCc2c([nH]c3ccccc23)C1c1cccc(Cl)c1 (stereo unspecified),,"inconclusive: 7.94 µM [inhibitor, partial curve, poor fit]"
CCC(C)NC(=O)c1cc2cc3ccc(OC)cc3nc2s1 (stereo unspecified),inactive: -12.9%,
CN(C)c1nc(=S)nc(NCc2ccccc2)[nH]1,inactive: -3.07%,
O=C(COC(=O)COc1ccc(Cl)cc1Cl)NC1CCCCCC1,inactive: -4.77%,
CCOc1ccc(NC(=O)c2ccc3c(=O)n4c(nc3c2)CCCCC4)cc1,inactive: -0.83%,
COc1ccc(N2CC(C(=O)Nc3ccccc3N3CCCC3)CC2=O)c(OC)c1 (stereo unspecified),,"inconclusive: 7.08 µM [inhibitor, partial curve, poor fit]"
CN(CCCNC(=O)C1CCN(S(=O)(=O)c2cccc3nsnc23)CC1)Cc1ccccc1,inactive: 4.13%,
Cc1ccc(C)c(-n2sc3ccc(F)cc3c2=O)c1,inactive: -18.6%,
COc1ccc(NC(=O)c2ccc(C)cc2)cc1,,active: 10 µM
C=CCOc1ccc(C2/C(=C(\O)c3ccc4c(c3)OCCO4)C(=O)C(=O)N2CCCN2CCOCC2)cc1 (stereo unspecified),inactive: -0.68%,
CC(C)CCn1cnc2c(oc3nc4c(cc32)CCCC4)c1=O,,"inconclusive: 10 µM [inhibitor, partial curve, poor fit]"
Cc1c(NC(=O)c2ccc3nsnc3c2)cccc1[N+](=O)[O-],,"inconclusive: 7.08 µM [inhibitor, single point]"

SMILES,"activity change, negative = inhibition",Potency
CCN1c2ccccc2NC2N=C(OC)C(c3ccccc3)C21 (stereo unspecified),,"inconclusive: 12.6 µM [inhibitor, single point]"
Cc1noc(C)c1COc1ccc(C(=O)NNC(=O)c2ccccc2F)cc1,,active: 2.82 µM
Cc1cc(C(F)(F)F)nn1Cc1n[nH]c(=S)n1-c1ccc(Cl)cc1,inactive: -1.62%,
COc1cc2oc(-c3ccc(O)cc3)cc(=O)c2c(O)c1OC,,"inconclusive: 7.08 µM [inhibitor, single point]"
COc1ccc(C2=NOC(C(=O)NCc3ccc(F)cc3)C2)cc1OC (stereo unspecified),,"inconclusive: 0.0112 µM [inhibitor, full curve, poor fit]"
Cc1ccc(O)c(NC(=O)/C=C/C(=O)O)c1,,"inconclusive: 3.98 µM [inhibitor, partial curve]"
COc1cccc(F)c1C(C[N+](=O)[O-])c1c(N)n(C)c(=O)n(C)c1=O (stereo unspecified),,"inconclusive: 2.51 µM [inhibitor, full curve, poor fit]"
CC(C)C(=O)C1=Cc2cccc([N+](=O)[O-])c2OC1N1CCOCC1 (stereo unspecified),,"inconclusive: 11.2 µM [inhibitor, partial curve, poor fit]"
CCC(C)c1ccc(NC(=O)Nc2cccnc2)cc1 (stereo unspecified),,"inconclusive: 12.6 µM [inhibitor, partial curve, poor fit]"
COC(=O)C1CCN(Cc2cn(-c3ccccc3)nc2-c2ccc3c(c2)OCO3)CC1,inactive: 5.95%,
Cc1ccc(CNC(=O)c2ccc3c(=O)c(O)c(-c4ccc(C)cc4)[nH]c3c2)cc1,,"inconclusive: 7.94 µM [inhibitor, partial curve]"
COCCN1C(=O)N[C@@H](c2ccco2)C(C(C)=O)=C1C,,"inconclusive: 7.94 µM [inhibitor, partial curve]"
COc1cc(O)cc(O)c1C(=O)/C=C/c1ccccc1,,"inconclusive: 10 µM [inhibitor, partial curve, poor fit]"
COc1ccc(NC(=O)CNS(=O)(=O)c2ccc(Cl)cc2)cc1OC,inactive: 0.74%,
CN(Cc1ccccc1)C(=O)CCS(=O)(=O)c1ccc2c(c1)NC(=O)CS2,inactive: -1.03%,
O=C(CSc1c2c(nc3cc(Cl)ccc13)CCCC2)NCCCN1CCOCC1,,"inconclusive: 11.2 µM [inhibitor, partial curve, poor fit]"
Cc1nc2sc(-c3ccccc3)cc2c(=O)n1N,,"inconclusive: 2.51 µM [inhibitor, full curve]"
COc1cccc(/C=C2/SC(=S)N(CCCC(=O)Nc3ccc(O)cc3)C2=O)c1,,"inconclusive: 10 µM [inhibitor, partial curve]"
COc1ccc(C[C@@H]2CN3C(=NC[C@@H]3C)N2CCNC(=O)c2ccc(C)c(Br)c2)cc1,,"inconclusive: 10 µM [inhibitor, partial curve, poor fit]"
COc1ccccc1C(=O)NCCC(=O)NCc1ccccn1,,"inconclusive: 0.0112 µM [inhibitor, full curve, poor fit]"
COc1cc(OC)c(NC2=CC(=O)C(=O)c3ccccc32)cc1Cl,,"inconclusive: 2.82 µM [inhibitor, partial curve, poor fit]"
COc1ccccc1C(=O)NCC(=O)N/N=C/c1cc(Br)ccc1OC(=O)/C=C\c1ccco1,,"inconclusive: 12.6 µM [inhibitor, single point]"
CC(CC12CC3CC(CC(C3)C1)C2)NCc1ccccc1O (stereo unspecified),,"inconclusive: 5.01 µM [inhibitor, partial curve, poor fit]"

# 2 entries drawn at random from those above, as already listed:
SMILES,"activity change, negative = inhibition",Potency
COc1ccc(NC(=O)CNS(=O)(=O)c2ccc(Cl)cc2)cc1OC,inactive: 0.74%,
O=C(CSc1c2c(nc3cc(Cl)ccc13)CCCC2)NCCCN1CCOCC1,,"inconclusive: 11.2 µM [inhibitor, partial curve, poor fit]"
